Results are given in words; binding and its absence hold for the method and conditions named. Some binding calls cover weakened binding; strength is not graded here. Blank lines part the entries; values can stand above or below the molecule they belong to.
Columns and labels:
[1] = target: T1, interferon-gamma receptor subunit 2 (IFN-γR2) (UniProt P38484 28-247, limits assumed); assay: crystal structure of the hexameric complex
T1 construct: Soluble purified protein (crystallised; analyte in SPR)
T1 sequence (looked up): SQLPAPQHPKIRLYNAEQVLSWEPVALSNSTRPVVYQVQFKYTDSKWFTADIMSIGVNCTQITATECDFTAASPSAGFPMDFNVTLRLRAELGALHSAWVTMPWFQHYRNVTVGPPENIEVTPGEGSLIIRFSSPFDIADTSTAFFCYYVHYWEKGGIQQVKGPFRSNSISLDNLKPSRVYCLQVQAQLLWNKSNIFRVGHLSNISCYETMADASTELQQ

[2] = target: T1, interferon-gamma receptor subunit 2 …; assay: crystal structure of the hexameric complex (FIG. 1)
[3] = target: T2, interferon-gamma receptor subunit 1 (IFN-γR1) (UniProt P15260); assay: SPR, Biacore T100; IFN-γ at 50 nM saturating IFN-γR1 captured on SA-chip (about 100 RU)
T2 sequence (looked up): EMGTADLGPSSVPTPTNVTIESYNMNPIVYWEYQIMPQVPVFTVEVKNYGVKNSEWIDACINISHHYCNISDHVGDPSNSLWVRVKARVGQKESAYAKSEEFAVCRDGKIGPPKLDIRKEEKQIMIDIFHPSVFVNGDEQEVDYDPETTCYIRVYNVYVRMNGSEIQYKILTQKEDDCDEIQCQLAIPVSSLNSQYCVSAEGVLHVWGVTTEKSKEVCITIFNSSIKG

[4] = target: wild-type 2:2 IFN-γ/IFN-γR1 intermediate complex (human) (UniProt P15260); assay: SPR, Biacore T100, equilibrium; IFN-γR1 captured on SA-chip, 50 nM IFN-γ in all IFN-γR2 dilutions
[5] = target: wild-type 2:2 IFN-γ/IFN-γR1 intermediate complex (human) (UniProt P15260); assay: SPR (FIG. 3B)
[6] = target: wild-type 2:2 IFN-γ/IFN-γR1 intermediate complex (human) (UniProt P15260); assay: SPR (Biacore T100, equilibrium method); about 100 RU of IFN-γR1 captured on an SA chip; wild-type IFN-γ at 50 nM in all dilutions of IFN-γR2; reference channel with an unrelated cytokine receptor
[7] = target: T2, interferon-gamma receptor subunit 1 (IFN-γR1); assay: SPR, Biacore T100; mutant IFN-γ at 50 nM saturating IFN-γR1 captured on SA-chip (about 100 RU)

- binding [1]: binds
- binding [2]: binds
- binding [3]: binds
Molecule: wild-type human interferon-gamma (IFN-γ) (from UniProt P01579 24-156) (ligand)

- binding [4]: binds
- binding [5]: binds
- binding [6]: binds
B1: interferon-gamma receptor subunit 2 (IFN-γR2) (receptor, UniProt P38484 28-247, looked up)
chain: SQLPAPQHPKIRLYNAEQVLSWEPVALSNSTRPVVYQVQFKYTDSKWFTADIMSIGVNCTQITATECDFTAASPSAGFPMDFNVTLRLRAELGALHSAWVTMPWFQHYRNVTVGPPENIEVTPGEGSLIIRFSSPFDIADTSTAFFCYYVHYWEKGGIQQVKGPFRSNSISLDNLKPSRVYCLQVQAQLLWNKSNIFRVGHLSNISCYETMADASTELQQ

- binding [7]: binds
B2: triple IFN-γ mutant having three amino acid substitutions K74A, E75Y, and N83R (ligand)
chain: QDPYVKEAENLKKYFNAGHSDVADNGTLFLGILKNWKEESDRKIMQSQIVSFYFKLFKNFKDDQSIQKSVETIAYDMNVKFFRSNKKKRDDFEKLTNYSVTDLNVQRKAIHELIQVMAELSPAAKTGKRKRSQ
notes: also called IFN-γ (K74A/E75Y/N75R); IFN-γK74A/E75Y/N83A
